Experimental data from patent US7740906B2, “Wood preservatives” (Rohm and Haas Company, priority 2005, dated 2010).

Experiment: Penetration of IPBC, Propiconazole and Tebuconazole (alone or with DCOIT) into pressure treated wood
Details: single active, 1500 ppm treatment solution, polymer G 5:1, 0.03% 15S40

Structure (SMILES) | % retained @ 10 mm [%]
CC(C)(C)C(O)(CCc1ccc(Cl)cc1)Cn1cncn1 (racemic) [Tebuconazole, (RS)-1-p-chlorophenyl-4,4-dimethyl-3-(1H-1,2,4-triazol-1-ylmethyl)pentan-3-ol] | 46
CCCCNC(=O)OCC#CI [IPBC, N n-butyl iodopropargyl carbamate] | 77
CCCC1COC(Cn2cncn2)(c2ccc(Cl)cc2Cl)O1 (stereo not drawn) [Propiconazole, cis-trans-1-[2-(2,4-dichlorophenyl)-4-propyl-1,3-dioxolan-2-ylmethyl]-1H-1,2,4-triazole] | 42
